## Screening data, single-dose tests

Each number is a percent effect as filed. How 0% and 100% were set is not recorded. Most values in the screen are low, and negative values occur. This is an unselected part of the compounds tested.

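Assay of Toxoplasma gondii numbers, read through their beta-galactosidase reporter with a colour substrate. Tested at 50 µM. The record gives no direction; the compounds picked for IC50 retests had high values, so higher reads as fewer parasites. Of about 18,000 compounds tested this way, about 170 (0.94%) reached 50% or more in at least one test.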

structure	Percent Effect
CSc1nnc(CN(C)CCO)s1	-1.839%
NC(c1ccccc1)C1(CO)CCC1 (stereo unspecified)	8.034%
CC(=O)NC(c1cnc2ccccc2c1)[C@H]1C[C@@H](O)C1 (stereo partly specified)	12.36%
O=C(NC1CC1)c1cc(O)nc2ccc(F)cc12	-15.28%
Cc1noc(C)c1CN1CCCC(CS(C)(=O)=O)C1 (stereo unspecified)	-9.047%
Cc1cc(N2CCNC2=O)ccc1NS(=O)(=O)C1CC1	-15.5%
COc1ccc(C(=O)C2CCCN2)cc1 (stereo unspecified)	-2.22%
COC1(c2noc(-c3cnccn3)n2)CCC1	-4.72%
Cn1cnnc1C(N)CO (stereo unspecified)	4.322%
CNCCc1ccc(C#N)cc1	-35.32%
CC(=O)c1ccc(C(=O)NC2CCCCNC2=O)s1 (stereo unspecified)	-22.47%
CC(=O)N1CC(NC(=O)NCC2CCCC2)C1	14.52%
O=C(NC[C@H]1CCc2ccccc2O1)[C@H]1CCCN1	-13.92%
NCc1ccncc1OCCC(F)(F)F	-0.1847%
CN(C)[C@@H]1CN(C(=O)c2ccnnc2)C[C@H]1CO	22.26%
CN(Cc1ncc[nH]1)C(=O)C(O)c1cccc(Cl)c1 (stereo unspecified)	4.044%
CCn1ccc(=O)[nH]c1=O	3.914%
COCCSCc1cnn(-c2ccccc2)n1	15.89%
CC(C)[C@@H](CO)Nc1cc([C@H]2C[C@@H](N)C2)ncn1	-1.036%
COc1cccc(Cl)c1CN	4.537%
Cc1ccc(CN(CCO)C(=O)c2cscn2)cc1	-0.4723%
COc1ccc(CN2CCCN(S(N)(=O)=O)CC2)cc1	-12.21%
CNC(=O)CCN1CCSC2(CCCCC2)C1	10.81%
CCCn1nnnc1CSc1ccccc1C#N	7.05%
CNCc1ccc2nsnc2c1	-11.64%
CC(C)C(=O)c1ccncc1	1.752%
Cc1c(C(=O)NCC(N)=O)oc2ccc(Cl)cc12	-11.06%
NCc1cn2cc(Cl)ccc2n1	9.097%
COC(C)c1noc(C2CCN(C(=O)N(C)C)CC2)n1 (stereo unspecified)	-4.877%
Nc1nc(C2CC(N)C2)cc(N2CCC(F)CC2)n1 (stereo unspecified)	-7.733%
CC1CN(Cc2ccc(C#N)o2)C(C)(C)CO1 (stereo unspecified)	-2.091%
O=C1CCCCCN1CCCNC(=O)N1CCSCC1	1.395%
CC(C)(C)c1n[nH]cc1CNCC(=O)N1CCCC1	12.63%
O=C(Cn1ccnc1)Nc1ccc(F)cc1	-6.511%
Cc1nnc(SCc2ccc(Cl)s2)n1CC(N)=O	-9.452%
COCCN(C)C[C@@H]1CN(C(=O)CO)C[C@@H]1CO	-16.17%
OCCN1CCc2ccccc2C1	5.873%
CC(C)c1ccoc1C(=O)N(C)c1cc(C#N)ccn1	6.133%
O=C(c1cccnc1O)N1CCC(N2CCCCC2)C1 (stereo unspecified)	2.473%
O=C(Cn1cncn1)NC(C1CC1)C1CC1	-1.32%
CC(c1cccs1)N(C)C(=O)c1ccc(C(N)=O)cc1 (stereo unspecified)	-4.617%
COC(=O)C1CC(c2ccccc2)=NO1 (stereo unspecified)	-0.5951%
CN(C)CCOC1CCNCC1	-2.138%
CN1CCCN(C[C@@H]2CN(S(C)(=O)=O)C[C@@H]2CO)CC1	13.96%
COCCCOc1ccc(C)cc1S(=O)(=O)N(C)C	-7.54%
CN(C)c1ncc(CN2CCCC(O)(CO)CC2)cn1 (stereo unspecified)	-21.35%
CC(O)(CN)C(F)(F)F (stereo unspecified)	-16.46%
NCCCc1ccc(O)cc1	24.61%
CN(C)C(=O)C1CCCN1C(=O)CC1CCCC1 (stereo unspecified)	-4.821%
CCC(CC)c1nnc(N)s1	-0.8774%

Once more, the final 5:

structure,Percent Effect
CN(C)c1ncc(CN2CCCC(O)(CO)CC2)cn1 (stereo unspecified),-21.35%
CC(O)(CN)C(F)(F)F (stereo unspecified),-16.46%
NCCCc1ccc(O)cc1,24.61%
CN(C)C(=O)C1CCCN1C(=O)CC1CCCC1 (stereo unspecified),-4.821%
CCC(CC)c1nnc(N)s1,-0.8774%

From ChEMBL document CHEMBL3988442, “University of Dundee, Small-Polar-MMV Screening Library” (2021).